The target of the assay is M2345-FLAG (human (from the printed UniProt entry)) (UniProt Q9UQB8). Put plainly: pull-down; dual tag (FLAG, STREP) purification; wild-type and M2345 subunits expressed in HEK293T cells from a single vector with an IRES between the two coding sequences.

Sequences of proteins named here, by UniProt entry; tags and fusion partners are left off. A change or cut given only in a name is not applied to a line headed by its entry. A line that says so, or that is headed by a name, gives the form on record, which may keep a tag or linker.
WT-IRSp53-STREP (Q9UQB8-4, form named): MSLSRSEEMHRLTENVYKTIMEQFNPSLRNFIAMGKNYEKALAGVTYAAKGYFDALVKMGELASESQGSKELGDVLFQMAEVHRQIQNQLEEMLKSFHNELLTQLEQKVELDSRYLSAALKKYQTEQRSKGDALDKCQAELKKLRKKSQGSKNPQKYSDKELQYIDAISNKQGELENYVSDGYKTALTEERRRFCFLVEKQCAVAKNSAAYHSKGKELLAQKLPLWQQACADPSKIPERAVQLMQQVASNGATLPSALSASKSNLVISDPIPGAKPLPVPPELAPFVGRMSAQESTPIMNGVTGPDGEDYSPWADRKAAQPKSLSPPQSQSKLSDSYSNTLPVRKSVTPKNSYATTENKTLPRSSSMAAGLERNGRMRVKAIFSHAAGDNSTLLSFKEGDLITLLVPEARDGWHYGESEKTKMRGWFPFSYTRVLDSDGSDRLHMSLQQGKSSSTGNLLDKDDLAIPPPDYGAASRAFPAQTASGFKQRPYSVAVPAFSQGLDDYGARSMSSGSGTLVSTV

One substance from article PMC6351565 can be followed below.

Results are given in words; binding and its absence hold for the method and conditions named. Binding seen in cells or lysates may run through a third protein. Some binding calls cover weakened binding; strength is not graded here.

In the case of “WT-IRSp53-STREP (from UniProt Q9UQB8-4 1-521)”, the binding entry is “binds”.
